Measurements from patent publication US20200367818A1, “DEVICES, SYSTEMS, AND METHODS FOR TUMOR VISUALIZATION AND REMOVAL” (UNIVERSITY HEALTH NETWORK, priority 2018, published 2020).
Where a name gives a salt, the structure may show the parent alone. At least one structure is not confirmed: it was looked up by name or label, or the drawing left a doubt.

Test system: invasive breast carcinoma lumpectomy/mastectomy specimens and lymph nodes
Assay: 5-ALA breast study: PpIX fluorescence imaging of breast tumor specimens and lymph nodes with handheld device (405 nm excitation)
Format: in vivo, human
[1] = higher 5-ALA group (30 mg/kg) vs lower 5-ALA group (15 mg/kg)

NCC(=O)CCC(=O)O [5-ALA, Aminolevulinic acid hydrochloride]
diagnostic measures for detecting tumor, higher vs lower 5-ALA group [1]: not significantly improved | median concentration of tumor PpIX, higher relative to lower 5-ALA group [1]: increase in the median concentration of tumor PpIX | PpIX FL in normal connective and adipose tissue relative to tumor tissue (patients receiving oral 5-ALA 15 or 30 mg/kg, 2-4 h before surgery): lower in areas of normal connective and adipose tissue relative to tumor tissue | PpIX FL in excised lymph nodes (tumour-positive sentinel nodes from 3 high dose ALA patients, FIG. 17a): detected in tumour-positive sentinel nodes
